Results published in PMC8511049, “hSSB2 (NABP1) is required for the recruitment of RPA during the cellular response to DNA UV damage”.
No constants are given. Whether binding was seen depends on the method and setting. For part of these data: In cells and extracts the contact can be indirect.

By UniProt entry, the sequences of proteins in these tests, tags left out. Where a name states a change or a piece, a line headed by the entry shows the natural chain unless it says otherwise.
UniProt Q96AH0: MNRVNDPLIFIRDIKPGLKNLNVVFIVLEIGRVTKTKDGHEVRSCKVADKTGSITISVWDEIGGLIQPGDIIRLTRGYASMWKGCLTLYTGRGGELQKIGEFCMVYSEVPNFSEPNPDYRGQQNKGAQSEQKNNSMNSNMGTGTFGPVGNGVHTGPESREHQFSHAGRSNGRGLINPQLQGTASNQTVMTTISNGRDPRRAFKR
UniProt Q01831: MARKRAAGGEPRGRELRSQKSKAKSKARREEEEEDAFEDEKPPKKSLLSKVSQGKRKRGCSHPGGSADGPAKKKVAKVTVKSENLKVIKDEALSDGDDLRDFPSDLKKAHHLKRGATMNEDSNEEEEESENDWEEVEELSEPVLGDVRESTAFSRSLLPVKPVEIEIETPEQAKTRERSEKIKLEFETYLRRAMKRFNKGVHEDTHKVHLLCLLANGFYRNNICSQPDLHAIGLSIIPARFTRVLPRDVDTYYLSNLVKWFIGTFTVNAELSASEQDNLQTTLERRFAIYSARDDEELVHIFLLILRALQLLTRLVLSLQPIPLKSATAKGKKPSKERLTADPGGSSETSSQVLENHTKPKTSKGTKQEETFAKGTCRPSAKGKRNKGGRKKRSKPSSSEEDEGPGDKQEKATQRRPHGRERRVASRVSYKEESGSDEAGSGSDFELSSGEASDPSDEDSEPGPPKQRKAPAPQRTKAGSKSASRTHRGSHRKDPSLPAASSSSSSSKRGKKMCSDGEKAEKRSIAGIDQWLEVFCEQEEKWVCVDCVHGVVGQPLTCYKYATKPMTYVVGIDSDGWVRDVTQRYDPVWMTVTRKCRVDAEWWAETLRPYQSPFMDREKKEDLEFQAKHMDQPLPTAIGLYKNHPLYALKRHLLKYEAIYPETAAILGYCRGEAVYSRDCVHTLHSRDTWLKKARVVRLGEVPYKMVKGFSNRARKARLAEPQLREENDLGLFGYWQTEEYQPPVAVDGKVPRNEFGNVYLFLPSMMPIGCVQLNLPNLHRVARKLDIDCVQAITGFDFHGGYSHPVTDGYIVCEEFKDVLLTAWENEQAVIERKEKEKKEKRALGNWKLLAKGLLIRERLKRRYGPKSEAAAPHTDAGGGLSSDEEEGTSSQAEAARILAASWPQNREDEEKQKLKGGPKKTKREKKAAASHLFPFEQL
UniProt P15927: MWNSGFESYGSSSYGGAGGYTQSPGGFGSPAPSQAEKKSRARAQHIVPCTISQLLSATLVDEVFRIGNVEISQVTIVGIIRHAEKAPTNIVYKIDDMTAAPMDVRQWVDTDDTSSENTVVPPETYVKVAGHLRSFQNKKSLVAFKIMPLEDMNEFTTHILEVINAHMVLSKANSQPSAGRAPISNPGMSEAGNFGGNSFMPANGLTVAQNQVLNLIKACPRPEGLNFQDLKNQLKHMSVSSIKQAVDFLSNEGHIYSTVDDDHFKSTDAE

Columns and labels:
[1] = molecular target: human Single-Stranded DNA Binding protein 2, hSSB2 (human) (UniProt Q96AH0); assay: co-IP; endogenous proteins from sonicated cell lysate (20 mM HEPES pH 8.0, 150 mM KCl, 1 mM EDTA, 0.05% Igepal) precipitated with 2 µg anti-OBFC2A (hSSB2) or XPC antibody on protein G Dynabeads, 90 min at 4 °C, 6 washes, western blot; time points examined
[2] = molecular target: DNA-binding domain of hSSB2 (hSSB2-OB, residues 1–132) (human) (UniProt Q96AH0); assay: SEC-MALS; 250 µg purified hSSB2-OB injected onto a Superose 12 10/30 column with in-line MALLS detector; 20 mM Tris pH 7, 100 mM NaCl, 1 mM EDTA, 1 mM TCEP (reducing); monomeric BSA as reference; both purified

binding [1]	binding [2]	Substance
no binding		Xeroderma Pigmentosum group C (XPC) (from UniProt Q01831 1-940)
no binding		Replication Protein A (RPA32) (from UniProt P15927 1-270)
	no binding (tested: 250 µg injected)	DNA-binding domain of hSSB2 (hSSB2-OB, residues 1–132) (from UniProt Q96AH0 1-132) (domain or fragment)
